# Assay results as given in the supplement of paper PMC8728848.
# The list shows a part of the results.
# B1: CcfD (Bacteroides fragilis), Q5L9G4 (protein)
# chain: MKKQNSIYTLLIALLCFVSSCDYLGVSDQLAGGLQNTEQVFDNVSYTKRWYANVFAGIPDYSGINSVNVGAFKNPWTGMCDELVVGYGNSSKYNNSDRNAANMGFHRYGDCYKYIRQANIFLQKAHPIMTTGTQGDQLLEDELTQMKANVRFMRAFYHYLLFEQYGPIILVKDKIYNATEDQDVPRNTVDEVIEYIDSELTAVASELTQEPIFEDKDYRAWPTKGVALAVRAKLWLYAASPLLNGGYREALSVTNPDGTRLFPDYDAGKWEKALAACKDFIDYAEAGRYELYKEYKDDNGAVIDPDKSVYNLFQKYTHEIIWATANNDWGGMNGDAFDRRIAPRCEKNGLGSTGVTQELVDAFYMKDGFPVSATAYLPQSTLYQEEGYGTYKDQNDNFSKKYTNVTVSNRYLNREPRFYNTVFFNGRQWPVSCNQVLFYNGGNSGVQEGQATLTGYMLFKRFNRSVSLTNPGVASQFRPSIIFRLADFYLMYAEAANEVNPNDARVLKYLNLVRERAGLPDIETLNPAIRGNQELQRAAIQRERQIELATEGQRYFDVRRWMIADKNGEGRQNGYVHGMNVRGESNDKEDFNRIVEASQIVFNRKMYLYPMPDSEMRKTKNLVQNPGW
# How the values were obtained:
# Assay in all cases: glycan array binding signal (z-score within array); higher = stronger binding
# Details in all cases: glycan notation: IUPAC condensed, linker removed
# [1] = target: Neu5Ac(a2-6)Gal(b1-4)GlcNAc(b1-2)Man(a1-3)[Man(a1-6)]Man(b1-4)GlcNAc(b1-4)GlcNAc
# Outline: (§1)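 Arrays were curated from the Consortium for Functional Glycomics database, 3228 in total, and kept only where the protein sequence was available. Binding is expressed as a within-array Z-score. This score was averaged across arrays of the same protein sequence at different concentrations or buffers and across linkers, and negative values can be read as non-binding.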
# [2] = target: Neu5Ac(a2-6)Gal(b1-4)GlcNAc(b1-2)Man(a1-3)[Neu5Ac(a2-3)Gal(b1-4)GlcNAc(b1-2)Man(a1-6)]Man(b1-4)GlcNAc(b1-4)GlcNAc
# Outline: as §1
# [3] = target: Neu5Ac(a2-6)Gal(b1-4)GlcNAc(b1-2)Man(a1-3)[Neu5Ac(a2-6)Gal(b1-4)GlcNAc(b1-2)Man(a1-6)]Man(b1-4)GlcNAc(b1-4)GlcNAc
# Outline: as §1
# [4] = target: Neu5Ac(a2-6)Gal(b1-4)GlcNAc(b1-2)Man(a1-3)[Neu5Ac(a2-6)Gal(b1-4)GlcNAc(b1-2)Man(a1-6)]Man(b1-4)GlcNAc(b1-4)[Fuc(a1-6)]GlcNAc
# Outline: as §1
# [5] = target: Neu5Ac(a2-6)Gal(b1-4)GlcNAc(b1-2)Man(a1-6)Man(b1-4)GlcNAc(b1-4)GlcNAc
# Outline: as §1
# [6] = target: Neu5Ac(a2-6)Gal(b1-4)GlcNAc(b1-2)Man(a1-6)[Gal(b1-4)GlcNAc(b1-2)Man(a1-3)]Man(b1-4)GlcNAc(b1-4)GlcNAc
# Outline: as §1
# [7] = target: Neu5Ac(a2-6)Gal(b1-4)GlcNAc(b1-2)Man(a1-6)[GlcNAc(b1-2)Man(a1-3)]Man(b1-4)GlcNAc(b1-4)GlcNAc
# Outline: as §1
# [8] = target: Neu5Ac(a2-6)Gal(b1-4)GlcNAc(b1-2)Man(a1-6)[Man(a1-3)]Man(b1-4)GlcNAc(b1-4)GlcNAc
# Outline: as §1
# [9] = target: Neu5Ac(a2-6)Gal(b1-4)GlcNAc(b1-2)[Neu5Ac(a2-6)Gal(b1-4)GlcNAc(b1-4)]Man(a1-3)[GlcNAc(b1-4)][Neu5Ac(a2-6)Gal(b1-4)GlcNAc(b1-2)[Neu5Ac(a2-6)Gal(b1-4)GlcNAc(b1-6)]Man(a1-6)]Man(b1-4)GlcNAc(b1-4)GlcNAc
# Outline: as §1
# [10] = target: Neu5Ac(a2-6)Gal(b1-4)GlcNAc(b1-2)[Neu5Ac(a2-6)Gal(b1-4)GlcNAc(b1-4)]Man(a1-3)[GlcNAc(b1-4)][Neu5Ac(a2-6)Gal(b1-4)GlcNAc(b1-4)Man(a1-6)]Man(b1-4)GlcNAc(b1-4)GlcNAc
# Outline: as §1
# [11] = target: Neu5Ac(a2-6)Gal(b1-4)GlcNAc(b1-2)[Neu5Ac(a2-6)Gal(b1-4)GlcNAc(b1-6)]Man(a1-6)[Neu5Ac(a2-6)Gal(b1-4)GlcNAc(b1-2)Man(a1-3)][GlcNAc(b1-4)]Man(b1-4)GlcNAc(b1-4)GlcNAc
# Outline: as §1
# [12] = target: Neu5Ac(a2-6)Gal(b1-4)GlcNAc(b1-3)Gal(b1-3)GlcNAc
# Outline: as §1
# [13] = target: Neu5Ac(a2-6)Gal(b1-4)GlcNAc(b1-3)Gal(b1-4)GlcNAc
# Outline: as §1
# [14] = target: Neu5Ac(a2-6)Gal(b1-4)GlcNAc(b1-3)Gal(b1-4)GlcNAc(b1-2)Man(a1-3)[Neu5Ac(a2-6)Gal(b1-4)GlcNAc(b1-3)Gal(b1-4)GlcNAc(b1-2)Man(a1-6)]GalNAc
# Outline: as §1
# [15] = target: Neu5Ac(a2-6)Gal(b1-4)GlcNAc(b1-3)Gal(b1-4)GlcNAc(b1-3)Gal(b1-4)GlcNAc
# Outline: as §1
# [16] = target: Neu5Ac(a2-6)Gal(b1-4)GlcNAc(b1-3)Gal(b1-4)GlcNAc(b1-3)Gal(b1-4)GlcNAc(b1-2)Man(a1-3)[Neu5Ac(a2-6)Gal(b1-4)GlcNAc(b1-3)Gal(b1-4)GlcNAc(b1-3)Gal(b1-4)GlcNAc(b1-2)Man(a1-6)]GalNAc
# Outline: as §1
# [17] = target: Neu5Ac(a2-6)Gal(b1-4)GlcNAc(b1-3)Gal(b1-4)GlcNAc(b1-3)GalNAc
# Outline: as §1
# [18] = target: Neu5Ac(a2-6)Gal(b1-4)GlcNAc(b1-3)Gal(b1-4)GlcNAc(b1-3)[Neu5Ac(a2-6)Gal(b1-4)GlcNAc(b1-3)Gal(b1-4)GlcNAc(b1-6)]GalNAc
# Outline: as §1
# [19] = target: Neu5Ac(a2-6)Gal(b1-4)GlcNAc(b1-3)Gal(b1-4)GlcNAc(b1-6)[Gal(b1-3)]GalNAc
# Outline: as §1
# [20] = target: Neu5Ac(a2-6)Gal(b1-4)GlcNAc(b1-3)Gal(b1-4)[Fuc(a1-3)]GlcNAc(b1-3)Gal(b1-4)[Fuc(a1-3)]GlcNAc
# Outline: as §1
# [21] = target: Neu5Ac(a2-6)Gal(b1-4)GlcNAc(b1-3)GalNAc
# Outline: as §1
# [22] = target: Neu5Ac(a2-6)Gal(b1-4)GlcNAc(b1-3)[Neu5Ac(a2-6)Gal(b1-4)GlcNAc(b1-6)]GalNAc
# Outline: as §1
# [23] = target: Neu5Ac(a2-6)Gal(b1-4)GlcNAc(b1-6)GalNAc
# Outline: as §1
# [24] = target: Neu5Ac(a2-6)Gal(b1-4)GlcNAc(b1-6)[Gal(b1-3)GlcNAc(b1-3)]Gal(b1-4)Glc
# Outline: as §1
# [25] = target: Neu5Ac(a2-6)Gal(b1-4)GlcNAc(b1-6)[Gal(b1-3)]GalNAc
# Outline: as §1
# [26] = target: Neu5Ac(a2-6)Gal(b1-4)GlcNAc6S
# Outline: as §1
# Neu5Ac(a2-6)GalNAc = target: Neu5Ac(a2-6)GalNAc
# Outline: as §1
# [27] = target: Neu5Ac(a2-6)GalNAc(b1-4)GlcNAc
# Outline: as §1
# [28] = target: Neu5Ac(a2-6)GalNAc(b1-4)GlcNAc6S
# Outline: as §1
# [29] = target: Neu5Ac(a2-6)GlcNAc(b1-4)GlcNAc
# Outline: as §1
binder,measurement,setting,value
B1,glycan array binding signal (z-score),[1],-0.003
same,glycan array binding signal (z-score),[2],-1.02
same,glycan array binding signal (z-score),[3],0.561
same,glycan array binding signal (z-score),[4],0.266
same,glycan array binding signal (z-score),[5],-0.259
same,glycan array binding signal (z-score),[6],1.4
same,glycan array binding signal (z-score),[7],4.06
same,glycan array binding signal (z-score),[8],-0.923
same,glycan array binding signal (z-score),[9],-0.299
same,glycan array binding signal (z-score),[10],-0.627
same,glycan array binding signal (z-score),[11],-0.246
same,glycan array binding signal (z-score),[12],-0.319
same,glycan array binding signal (z-score),[13],-0.988
same,glycan array binding signal (z-score),[14],-0.424
same,glycan array binding signal (z-score),[15],-1.04
same,glycan array binding signal (z-score),[16],2.39
same,glycan array binding signal (z-score),[17],-1.02
same,glycan array binding signal (z-score),[18],2.75
same,glycan array binding signal (z-score),[19],-0.818
same,glycan array binding signal (z-score),[20],-1.26
same,glycan array binding signal (z-score),[21],1.38
same,glycan array binding signal (z-score),[22],0.548
same,glycan array binding signal (z-score),[23],-1.06
same,glycan array binding signal (z-score),[24],0.903
same,glycan array binding signal (z-score),[25],-0.47
same,glycan array binding signal (z-score),[26],2.06
same,glycan array binding signal (z-score),Neu5Ac(a2-6)GalNAc,-0.016
same,glycan array binding signal (z-score),[27],-0.837
same,glycan array binding signal (z-score),[28],-1.22
same,glycan array binding signal (z-score),[29],-0.128

# Part of the list above, with bars between the fields:
binder | measurement | setting | value
B1 | glycan array binding signal (z-score) | [19] | -0.818
same | glycan array binding signal (z-score) | [20] | -1.26
